The values that follow come from PMC5466602.

Results are given in words; binding and its absence hold for the method and conditions named. In cells and extracts the contact can be indirect. A yes stands for co-enrichment or nearness to the bait. Other partners may have been found. Tags and fused reporters may be left off the sequences shown.

In this test the target is T1, Utp21p-TAP (S. cerevisiae) (UniProt Q06078).
T1 sequence: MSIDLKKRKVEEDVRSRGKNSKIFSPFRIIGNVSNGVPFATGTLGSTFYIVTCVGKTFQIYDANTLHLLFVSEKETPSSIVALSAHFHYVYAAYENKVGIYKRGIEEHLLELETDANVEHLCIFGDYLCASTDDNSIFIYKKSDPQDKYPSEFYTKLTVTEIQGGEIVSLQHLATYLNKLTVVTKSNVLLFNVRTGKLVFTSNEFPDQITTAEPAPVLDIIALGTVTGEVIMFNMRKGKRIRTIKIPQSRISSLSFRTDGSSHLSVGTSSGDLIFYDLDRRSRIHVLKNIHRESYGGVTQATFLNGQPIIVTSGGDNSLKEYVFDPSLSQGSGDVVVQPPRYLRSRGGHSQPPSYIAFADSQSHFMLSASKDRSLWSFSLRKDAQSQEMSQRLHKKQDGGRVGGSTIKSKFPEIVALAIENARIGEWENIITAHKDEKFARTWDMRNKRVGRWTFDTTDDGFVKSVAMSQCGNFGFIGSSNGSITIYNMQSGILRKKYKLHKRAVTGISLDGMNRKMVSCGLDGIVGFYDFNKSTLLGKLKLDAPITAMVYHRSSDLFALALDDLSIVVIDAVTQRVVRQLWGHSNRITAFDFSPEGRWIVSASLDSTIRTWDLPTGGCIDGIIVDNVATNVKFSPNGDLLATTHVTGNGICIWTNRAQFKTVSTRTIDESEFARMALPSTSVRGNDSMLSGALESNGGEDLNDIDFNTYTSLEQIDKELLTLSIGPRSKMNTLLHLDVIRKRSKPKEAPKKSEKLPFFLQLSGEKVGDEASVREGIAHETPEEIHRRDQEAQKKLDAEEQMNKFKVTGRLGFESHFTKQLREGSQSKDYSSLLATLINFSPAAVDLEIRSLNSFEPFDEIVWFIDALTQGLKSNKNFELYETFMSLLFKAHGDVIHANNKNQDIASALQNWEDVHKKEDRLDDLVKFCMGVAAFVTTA
Kind of test: affinity purification with mass spectrometry; Utp21p-TAP purified on IgG-coupled magnetic beads from yeast lysate, buffer PM; semi-quantitative iTRAQ mass spectrometry normalised to Utp21p-TAP; genomic GAL::HA-PWP2 shut off in glucose (8 h, 18 h or 14 h) with a plasmid-borne PWP2 allele or empty plasmid.

B1: Utp18p (protein, UniProt P40362 1-594)
chain: MTMATTAMNVSVPPPDEEEQLLAKFVFGDTTDLQENLAKFNADFIFNEQEMDVEDQEDEGSESDNSEEDEAQNGELDHVNNDQLFFVDDGGNEDSQDKNEDTMDVDDEDDSSSDDYSEDSEEAAWIDSDDEKIKVPILVTNKTKKLRTSYNESKINGVHYINRLRSQFEKIYPRPKWVDDESDSELDDEEDDEEEGSNNVINGDINALTKILSTTYNYKDTLSNSKLLPPKKLDIVRLKDANASHPSHSAIQSLSFHPSKPLLLTGGYDKTLRIYHIDGKTNHLVTSLHLVGSPIQTCTFYTSLSNQNQQNIFTAGRRRYMHSWDLSLENLTHSQTAKIEKFSRLYGHESTQRSFENFKVAHLQNSQTNSVHGIVLLQGNNGWINILHSTSGLWLMGCKIEGVITDFCIDYQPISRGKFRTILIAVNAYGEVWEFDLNKNGHVIRRWKDQGGVGITKIQVGGGTTTTCPALQISKIKQNRWLAVGSESGFVNLYDRNNAMTSSTPTPVAALDQLTTTISNLQFSPDGQILCMASRAVKDALRLVHLPSCSVFSNWPTSGTPLGKVTSVAFSPSGGLLAVGNEQGKVRLWKLNHY
With B1, the binding result was “binds”.

B2: Utp6p (protein, UniProt Q02354 1-440)
chain: MSKTRYYLEQCIPEMDDLVEKGLFTKNEVSLIMKKRTDFEHRLNSRGSSINDYIKYINYESNVNKLRAKRCKRILQVKKTNSLSDWSIQQRIGFIYQRGTNKFPQDLKFWAMYLNYMKARGNQTSYKKIHNIYNQLLKLHPTNVDIWISCAKYEYEVHANFKSCRNIFQNGLRFNPDVPKLWYEYVKFELNFITKLINRRKVMGLINEREQELDMQNEQKNNQAPDEEKSHLQVPSTGDSMKDKLNELPEADISVLGNAETNPALRGDIALTIFDVCMKTLGKHYINKHKGYYAISDSKMNIELNKETLNYLFSESLRYIKLFDEFLDLERDYLINHVLQFWKNDMYDLSLRKDLPELYLKTVMIDITLNIRYMPVEKLDIDQLQLSVKKYFAYISKLDSASVKSLKNEYRSYLQDNYLKKMNAEDDPRYKILDLIISKL
With B2, the binding entry is listed as “binds”.

B3: Mrd1p (protein, UniProt Q06106 1-887)
chain: MSRIIVKGLPVYLTDDNLREHFTKRLRQKHSHQAVNGSGPDLITDVKILRDRNGESRRFGFIGYRNEEDAFDAVEYFNGSFINTSKIEVSMAKSFADPRVPQPMKEKRREALKRFREKEEKLLQEENRKKKKVDENKHSNIDDEIRKNKQLQEFMETMKPSSQVTSWEKVGIDKSIEDEKLKREEEDSSVQGNSLLAHALALKEENNKDEAPNLVIENESDDEYSALNRNRDEDQEDAGEEEKMISISNLKDTDIGLVNDDANSDEKENEKRRNLAQDEKVSDLDWFKQRRVRIKESEAETREKSSSYATEQNESLDTKKEEQPERAVPQKTDEELAIEKINQTGRLFLRNILYTSKEEDFRKLFSPFGELEEVHVALDTRTGQSKGFAYVLFKDSKNAVNAYVELDKQIFQGRLLHILPGEEKKSHRLDEFDLKNMPLKKQKELKRKAAASRQTFSWNSLYMNQDAVLGSVAAKLGLEKSQLIDAENSSSAVKQALAEAHVIGDVRKYFESKGVDLTKFSQLKSTNQRDDKVILVKNFPFGTTREELGEMFLPYGKLERLLMPPAGTIAIVQFRDTTSARAAFTKLSYKRFKDGIIYLERGPKDCFTKPAEADDLINNTSAKEEENPVEVKPSSNDLMEANKDVTEGSSNAHDEDVIDGPTVSIFIKNLNFSTTNQNLTDRFKVFTGFVVAQVKTKPDPKHQGKTLSMGFGFVEFRTKEQANAVIAAMDGTVIDGHKIQLKLSHRQASQSGNTKTKSNKKSGKIIVKNLPFEATRKDVFELFNSFGQLKSVRVPKKFDKSARGFAFVEFLLPKEAENAMDQLHGVHLLGRRLVMQYAEEDAVDAEEEIARMTKKVRKQVATNEMAALRNGGGRKKLDVDDEENEGF
As for B3, the binding result is on record as “binds”.

B4: Pwp2p (wild type, plasmid-encoded, untagged) (protein, UniProt P25635 1-923)
chain: MKSDFKFSNLLGTVYRQGNITFSDDGKQLLSPVGNRVSVFDLINNKSFTFEYEHRKNIAAIDLNKQGTLLISIDEDGRAILVNFKARNVLHHFNFKEKCSAVKFSPDGRLFALASGRFLQIWKTPDVNKDRQFAPFVRHRVHAGHFQDITSLTWSQDSRFILTTSKDLSAKIWSVDSEEKNLAATTFNGHRDYVMGAFFSHDQEKIYTVSKDGAVFVWEFTKRPSDDDDNESEDDDKQEEVDISKYSWRITKKHFFYANQAKVKCVTFHPATRLLAVGFTSGEFRLYDLPDFTLIQQLSMGQNPVNTVSVNQTGEWLAFGSSKLGQLLVYEWQSESYILKQQGHFDSTNSLAYSPDGSRVVTASEDGKIKVWDITSGFCLATFEEHTSSVTAVQFAKRGQVMFSSSLDGTVRAWDLIRYRNFRTFTGTERIQFNCLAVDPSGEVVCAGSLDNFDIHVWSVQTGQLLDALSGHEGPVSCLSFSQENSVLASASWDKTIRIWSIFGRSQQVEPIEVYSDVLALSMRPDGKEVAVSTLKGQISIFNIEDAKQVGNIDCRKDIISGRFNQDRFTAKNSERSKFFTTIHYSFDGMAIVAGGNNNSICLYDVPNEVLLKRFIVSRNMALNGTLEFLNSKKMTEAGSLDLIDDAGENSDLEDRIDNSLPGSQRGGDLSTRKMRPEVRVTSVQFSPTANAFAAASTEGLLIYSTNDTILFDPFDLDVDVTPHSTVEALREKQFLNALVMAFRLNEEYLINKVYEAIPIKEIPLVASNIPAIYLPRILKFIGDFAIESQHIEFNLIWIKALLSASGGYINEHKYLFSTAMRSIQRFIVRVAKEVVNTTTDNKYTYRFLVSTDGSMEDGAADDDEVLLKDDADEDNEENEENDVVMESDDEEGWIGFNGKDNKLPLSNENDSSDEEENEKELP
As for B4, the binding entry was “binds”.

B5: Nop6p (protein, UniProt Q07623 1-225)
chain: MGSEEDKKLTKKQLKAQQFRKSKEEKDQEKDVKKEQAPEGKRPNSAAGNDGEEPVKKKRKTRRGRGGKGKNGKKGNRFIVFVGSLPRDITAVELQNHFKNSSPDQIRLRADKGIAFLEFDADKDRTGIQRRMDIALLQHGTLLKEKKINVELTVGGGGNSQERLEKLKNKNIKLDEERKERLTKMINDGNQKKIAKTTATAAQTSGTDNKPVPAGIHPDRAKLLK
As for B5, the binding result was “binds”.

B6: Pwp2p-ΔC206 (aa 1–717) (domain or fragment, UniProt P25635 1-717)
chain: MKSDFKFSNLLGTVYRQGNITFSDDGKQLLSPVGNRVSVFDLINNKSFTFEYEHRKNIAAIDLNKQGTLLISIDEDGRAILVNFKARNVLHHFNFKEKCSAVKFSPDGRLFALASGRFLQIWKTPDVNKDRQFAPFVRHRVHAGHFQDITSLTWSQDSRFILTTSKDLSAKIWSVDSEEKNLAATTFNGHRDYVMGAFFSHDQEKIYTVSKDGAVFVWEFTKRPSDDDDNESEDDDKQEEVDISKYSWRITKKHFFYANQAKVKCVTFHPATRLLAVGFTSGEFRLYDLPDFTLIQQLSMGQNPVNTVSVNQTGEWLAFGSSKLGQLLVYEWQSESYILKQQGHFDSTNSLAYSPDGSRVVTASEDGKIKVWDITSGFCLATFEEHTSSVTAVQFAKRGQVMFSSSLDGTVRAWDLIRYRNFRTFTGTERIQFNCLAVDPSGEVVCAGSLDNFDIHVWSVQTGQLLDALSGHEGPVSCLSFSQENSVLASASWDKTIRIWSIFGRSQQVEPIEVYSDVLALSMRPDGKEVAVSTLKGQISIFNIEDAKQVGNIDCRKDIISGRFNQDRFTAKNSERSKFFTTIHYSFDGMAIVAGGNNNSICLYDVPNEVLLKRFIVSRNMALNGTLEFLNSKKMTEAGSLDLIDDAGENSDLEDRIDNSLPGSQRGGDLSTRKMRPEVRVTSVQFSPTANAFAAASTEGLLIYSTNDTILFDPFDL
With B6, the binding result is given as “binds”.

B7: Pwp2p-ΔC103 (aa 1–820) (domain or fragment, UniProt P25635 1-820)
chain: MKSDFKFSNLLGTVYRQGNITFSDDGKQLLSPVGNRVSVFDLINNKSFTFEYEHRKNIAAIDLNKQGTLLISIDEDGRAILVNFKARNVLHHFNFKEKCSAVKFSPDGRLFALASGRFLQIWKTPDVNKDRQFAPFVRHRVHAGHFQDITSLTWSQDSRFILTTSKDLSAKIWSVDSEEKNLAATTFNGHRDYVMGAFFSHDQEKIYTVSKDGAVFVWEFTKRPSDDDDNESEDDDKQEEVDISKYSWRITKKHFFYANQAKVKCVTFHPATRLLAVGFTSGEFRLYDLPDFTLIQQLSMGQNPVNTVSVNQTGEWLAFGSSKLGQLLVYEWQSESYILKQQGHFDSTNSLAYSPDGSRVVTASEDGKIKVWDITSGFCLATFEEHTSSVTAVQFAKRGQVMFSSSLDGTVRAWDLIRYRNFRTFTGTERIQFNCLAVDPSGEVVCAGSLDNFDIHVWSVQTGQLLDALSGHEGPVSCLSFSQENSVLASASWDKTIRIWSIFGRSQQVEPIEVYSDVLALSMRPDGKEVAVSTLKGQISIFNIEDAKQVGNIDCRKDIISGRFNQDRFTAKNSERSKFFTTIHYSFDGMAIVAGGNNNSICLYDVPNEVLLKRFIVSRNMALNGTLEFLNSKKMTEAGSLDLIDDAGENSDLEDRIDNSLPGSQRGGDLSTRKMRPEVRVTSVQFSPTANAFAAASTEGLLIYSTNDTILFDPFDLDVDVTPHSTVEALREKQFLNALVMAFRLNEEYLINKVYEAIPIKEIPLVASNIPAIYLPRILKFIGDFAIESQHIEFNLIWIKALLSASGGYINEHKYLFSTA
Take B7: the binding result is recorded as “binds”.
